Reference: the supplement of paper PMC6411743
± gives the standard deviation of the averaged measurements. Only a part is listed here, and it is no random draw.

Legend:
Assay in all cases: NP40-soluble protein abundance relative to vehicle (solubility fold change) (ratio); higher = more soluble protein in presence of AMP-PNP
[1] = target: T1, UniProt O14966 and related entries
T1 sequence (whole entry): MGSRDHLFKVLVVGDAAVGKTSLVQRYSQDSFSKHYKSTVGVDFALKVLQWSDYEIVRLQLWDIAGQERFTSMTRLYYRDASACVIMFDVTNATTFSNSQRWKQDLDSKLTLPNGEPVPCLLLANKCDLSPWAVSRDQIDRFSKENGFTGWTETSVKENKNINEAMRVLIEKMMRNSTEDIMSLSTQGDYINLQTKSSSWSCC
How it was run: (§1)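 Data come from three independent experiments in which Dounce-homogenised Jurkat crude lysate was treated at eight concentrations from 0.1 to 10 mM. Treatment ran 10 min at room temperature and then 3 min at 37 °C, after which 0.8% NP40 and benzonase were added for 60 min at 4 °C before ultracentrifugation. The supernatant underwent TMT labelling and LC-MS/MS, and vsn-normalised intensities were expressed as fold change against the detergent-processed vehicle in each replicate.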

UniProt O15091 = target: T2, UniProt O15091
T2 sequence (whole entry): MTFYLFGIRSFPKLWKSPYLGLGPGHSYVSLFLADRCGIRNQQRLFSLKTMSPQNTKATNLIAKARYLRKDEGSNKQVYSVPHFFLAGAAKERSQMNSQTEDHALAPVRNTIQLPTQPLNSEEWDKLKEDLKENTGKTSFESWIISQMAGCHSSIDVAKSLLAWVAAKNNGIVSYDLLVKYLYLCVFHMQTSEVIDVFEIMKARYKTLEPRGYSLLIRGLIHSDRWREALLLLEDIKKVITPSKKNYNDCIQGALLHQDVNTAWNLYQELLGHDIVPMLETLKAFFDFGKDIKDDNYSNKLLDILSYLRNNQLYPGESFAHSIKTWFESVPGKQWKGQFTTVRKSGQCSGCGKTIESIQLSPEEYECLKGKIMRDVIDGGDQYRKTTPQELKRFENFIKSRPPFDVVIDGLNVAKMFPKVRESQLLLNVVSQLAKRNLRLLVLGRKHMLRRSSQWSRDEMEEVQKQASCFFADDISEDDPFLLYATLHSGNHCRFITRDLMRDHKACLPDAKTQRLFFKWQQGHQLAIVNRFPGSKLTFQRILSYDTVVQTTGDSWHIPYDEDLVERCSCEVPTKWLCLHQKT
How it was run: as §1

[2] = target: T3, UniProt O15173 and related entries
T3 sequence (whole entry): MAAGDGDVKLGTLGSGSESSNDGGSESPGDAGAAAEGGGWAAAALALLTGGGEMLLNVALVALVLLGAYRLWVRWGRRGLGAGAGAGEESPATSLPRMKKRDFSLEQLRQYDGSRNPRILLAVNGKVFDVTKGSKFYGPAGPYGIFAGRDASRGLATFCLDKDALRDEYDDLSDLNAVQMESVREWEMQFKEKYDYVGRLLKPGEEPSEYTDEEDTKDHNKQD
How it was run: as §1

[3] = target: T4, UniProt O15530 and related entries
T4 sequence (whole entry): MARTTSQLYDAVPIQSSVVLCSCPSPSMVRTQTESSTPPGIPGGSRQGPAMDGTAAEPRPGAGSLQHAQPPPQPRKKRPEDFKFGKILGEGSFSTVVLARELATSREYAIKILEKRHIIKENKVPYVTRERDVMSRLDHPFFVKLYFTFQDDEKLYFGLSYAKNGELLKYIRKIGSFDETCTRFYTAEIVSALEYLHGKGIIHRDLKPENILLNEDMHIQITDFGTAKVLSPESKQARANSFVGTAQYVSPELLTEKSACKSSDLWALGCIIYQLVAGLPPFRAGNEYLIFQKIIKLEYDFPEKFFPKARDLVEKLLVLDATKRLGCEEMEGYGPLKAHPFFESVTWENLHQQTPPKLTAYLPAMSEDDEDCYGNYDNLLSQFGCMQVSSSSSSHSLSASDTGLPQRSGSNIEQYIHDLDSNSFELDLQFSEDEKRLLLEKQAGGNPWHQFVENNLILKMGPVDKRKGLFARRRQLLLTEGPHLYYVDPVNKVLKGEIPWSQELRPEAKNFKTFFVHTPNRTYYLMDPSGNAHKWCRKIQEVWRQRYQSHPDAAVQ
How it was run: as §1

[4] = target: T5, UniProt O43310 and related entries
T5 sequence (whole entry): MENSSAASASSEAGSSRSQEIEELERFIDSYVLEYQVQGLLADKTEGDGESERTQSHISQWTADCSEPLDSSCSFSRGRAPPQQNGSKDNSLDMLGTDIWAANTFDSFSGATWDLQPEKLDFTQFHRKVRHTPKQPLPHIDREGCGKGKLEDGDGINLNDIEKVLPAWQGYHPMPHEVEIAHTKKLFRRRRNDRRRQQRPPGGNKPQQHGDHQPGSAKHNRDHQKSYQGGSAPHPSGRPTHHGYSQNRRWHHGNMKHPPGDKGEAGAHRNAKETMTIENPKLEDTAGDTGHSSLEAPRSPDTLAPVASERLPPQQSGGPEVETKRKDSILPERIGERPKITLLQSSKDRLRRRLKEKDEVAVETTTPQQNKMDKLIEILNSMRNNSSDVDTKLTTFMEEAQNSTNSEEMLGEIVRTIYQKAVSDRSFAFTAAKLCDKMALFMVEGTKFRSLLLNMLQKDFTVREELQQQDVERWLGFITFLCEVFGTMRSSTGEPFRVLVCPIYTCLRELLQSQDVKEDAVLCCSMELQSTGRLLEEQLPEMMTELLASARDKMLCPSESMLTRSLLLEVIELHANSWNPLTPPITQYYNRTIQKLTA
How it was run: as §1

## Nc1ncnc2c1ncn2[C@@H]1O[C@H](COP(=O)(O)OP(=O)(O)NP(=O)(O)O)[C@@H](O)[C@H]1O [adenylyl imidodiphosphate]
[1]; concentration: 6mM
  NP40-soluble protein abundance: 0.993 ± 0.019
[1]; concentration: 8mM
  NP40-soluble protein abundance: 0.996 ± 0.028
[1]; concentration: 10mM
  NP40-soluble protein abundance: 1.01 ± 0.016
UniProt O15091; concentration: 1mM
  NP40-soluble protein abundance: 0.994 ± 0.028
UniProt O15091; concentration: 2mM
  NP40-soluble protein abundance: 1.01 ± 0.03
UniProt O15091; concentration: 4mM
  NP40-soluble protein abundance: 1.03 ± 0.033
UniProt O15091; concentration: 6mM
  NP40-soluble protein abundance: 1.03 ± 0.02
UniProt O15091; concentration: 8mM
  NP40-soluble protein abundance: 1 ± 0.018
UniProt O15091; concentration: 10mM
  NP40-soluble protein abundance: 1.042 ± 0.0031
[2]; concentration: 1mM
  NP40-soluble protein abundance: 0.959 ± 0.037
[2]; concentration: 2mM
  NP40-soluble protein abundance: 1 ± 0.078
[2]; concentration: 4mM
  NP40-soluble protein abundance: 0.971 ± 0.014
[2]; concentration: 6mM
  NP40-soluble protein abundance: 1.02 ± 0.079
[2]; concentration: 8mM
  NP40-soluble protein abundance: 1.02 ± 0.033
[2]; concentration: 10mM
  NP40-soluble protein abundance: 0.993 ± 0.035
[3]; concentration: 1mM
  NP40-soluble protein abundance: 0.966 ± 0.043
[3]; concentration: 2mM
  NP40-soluble protein abundance: 0.994 ± 0.061
[3]; concentration: 4mM
  NP40-soluble protein abundance: 0.991 ± 0.086
[3]; concentration: 6mM
  NP40-soluble protein abundance: 0.998 ± 0.07
[3]; concentration: 8mM
  NP40-soluble protein abundance: 0.979 ± 0.096
[3]; concentration: 10mM
  NP40-soluble protein abundance: 1.01 ± 0.069
[4]; concentration: 1mM
  NP40-soluble protein abundance: 1.06 ± 0.045
[4]; concentration: 2mM
  NP40-soluble protein abundance: 1.07 ± 0.062
[4]; concentration: 4mM
  NP40-soluble protein abundance: 1.07 ± 0.063
[4]; concentration: 6mM
  NP40-soluble protein abundance: 1.04 ± 0.041
